Experimental data taken from PubChem BioAssay AID2685 (National Center for Advancing Translational Sciences (NCATS), 2010).
Screen size: about 320,000 compounds; about 2,100 (0.66%) were called active. Inconclusive results, whose numbers are uncertain, are shown with a selection of clear calls. Calls follow the shape of the dose curve; as a rule, active = well fitted inhibition curve with a large enough effect in the signal ratio, with a control signal flat (not every such curve was filed as active); inconclusive = small, poorly fitted or top-dose-only effect, or effect the other way, or a change in a side signal; inactive = flat fitted curve, though single readings scatter; the % refers to the signal ratio. Potencies of inconclusive entries are doubtful fits and often do not repeat.

Experiment: qHTS Assay for Lipid Storage Modulators in Drosophila S3 Cells
Conditions: BODIPY lipid droplet fluorescence, 18-24 h, cells fed with added oleic acid; lipid storage change, negative = inhibition: at 46.1 µM (top of the series) unless noted
Outline: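 Drosophila S3 cells got compounds at several concentrations plus oleic acid (400 uM solution). Laser-scanning cytometry with 488 nm excitation read lipid droplets at 500-530 nm and cells at 575-640 nm. Percent activity was relative to 20 uM Triacsin C.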
% is scaled to controls: 0 for no effect and ±100 for the full control effect; potency is read from the fitted curve at half-maximal effect.

Structure (SMILES)	lipid storage change, negative = inhibition	Potency
CC(/C=C/c1ccccc1F)=N\NC(=O)C(C)C	inconclusive: 3.94%	–
CCC(=O)n1nc(NCc2ccc(OC)c(OC)c2)nc1NCc1ccc(OC)c(OC)c1	–	inconclusive: 1.03 µM [activator, full curve, poor fit]
CCOc1ccc(S(=O)(=O)N2CCCC(C(=O)NCC3CCCO3)C2)cc1Cl (stereo not given)	inconclusive	–
O=S(=O)(NCCc1cn2ccccc2n1)c1ccc2c(c1)CCCC2	inconclusive: 1.67%	–
COc1ccc(C(=O)Nc2cc3c4c(c2)CC(=O)N4CCC3)c(OC)c1	inconclusive: 11.3%	–
c1ccc(CC2CCCNC2)cc1 (stereo not given)	inconclusive: -12.7%	–
COc1cc(C2N(c3ccc(F)cc3)C(=O)C3CCCN32)cc(OC)c1OC (stereo not given)	inconclusive: -65.9%	–
CCOC(=O)c1ccc(NC(=O)Nc2c(C)n(C)n(-c3ccccc3)c2=O)cc1	–	inconclusive: 18.4 µM [activator, single point]
Clc1ccc2c(c1)C=Nc1c(NCc3ccccc3)ncnc1O2	inconclusive: 18.4%	–
O=C(Nc1ccc(C(=O)N2CCN(c3ccccc3F)CC2)cc1)C1=CSCCO1	–	inconclusive: 6.51 µM [activator, single point]
Cc1sc2ncn(CC(=O)N3CCCC(C)C3)c(=O)c2c1S(=O)(=O)N1CCCCC1 (stereo not given)	inconclusive: -1.22%	–
CCc1nnc(NC(=O)c2cccs2)s1	–	inconclusive: 0.731 µM [cytotoxic, full curve]
CC(=O)Nc1c(S(=O)(=O)c2ccccc2)c2nc3ccccc3nc2n1Cc1ccccc1	inconclusive: 28.6%	–
CC(=O)CCS(=O)(=O)c1ccc(C)c(C)c1	–	inconclusive: 16.4 µM [falling, single point]
COc1ccc(OCCN2C(=O)c3ccccc3C2=O)c([N+](=O)[O-])c1	inconclusive: -50.2%	–
COc1ccc(C(=O)NCC(=O)OCc2ccccc2F)cc1	inconclusive: 50.1%	–
COc1cc(OC)cc(C(=O)Nn2cc(C(=O)Nc3ccc(F)cc3F)c3ccccc3c2=O)c1	inconclusive: 6.2%	–
CN(c1nc(-c2ccccc2)cs1)C1CCS(=O)(=O)C1 (stereo not given)	–	inconclusive: 13 µM [activator, single point]
Cc1cc(C(=O)CSc2nnc(-c3cccnc3)n2-c2ccccc2)c(C)n1CC1CCCO1 (stereo not given)	–	inconclusive: 0.326 µM [activator, partial curve, poor fit]
CCN(C(=O)c1cc2c(=O)n3cccc(C)c3nc2s1)C1CCCCC1	inconclusive: 272%	–
COc1ccc(NC(=O)c2ccccc2Oc2ccccc2)cc1	inconclusive: 81.4%	–
O=C1C2=C(C(c3ccccc3)=NCCN2)C(c2cccc([N+](=O)[O-])c2)N1c1ccccc1 (stereo not given)	–	inconclusive: 0.146 µM [falling, full curve, poor fit]
Cc1ccc(C)c(NC(=O)CNS(=O)(=O)c2ccccc2)c1	–	inconclusive: 1.46 µM [rising, full curve]
CCc1ccc2[nH]c(=O)c(CN(CCCN3CCOCC3)C(=O)Nc3ccccc3)cc2c1	–	inconclusive: 1.3 µM [activator, full curve]
COc1ccc(Cl)cc1NC(=O)CN(C)C(=O)c1cn2ccccc2n1	inconclusive: 8.84%	–

Structure (SMILES)	lipid storage change, negative = inhibition	Potency
COc1cc2c(cc1OC)CN(C(=O)c1ccc(N3CCCC3)c([N+](=O)[O-])c1)CC2	–	inconclusive: 2.59 µM [activator, full curve]
CCOC(=O)C1CCCN(S(=O)(=O)c2cc(Br)cc3c2N(C(C)=O)CC3)C1 (stereo not given)	inconclusive: -95%	–
COc1cc(NC(=O)CN2C(=O)C(=O)N(CC(C)C)C2=O)cc(OC)c1	inconclusive	–
CC1CCN(C(=O)CN2C(=O)COc3ccc(Cl)cc32)CC1	inconclusive: 6.36%	–
CC1CN(CCCCN2C(=O)c3ccccc3C2=O)CC(C)O1 (stereo not given)	inconclusive: -0.495%	–
O=C1C2C3C=CC(C3)C2C(=O)N1Cc1ccccc1 (stereo not given)	inconclusive: 17.6%	–
CCCCn1c(N)c(-c2nc3ccccc3s2)c2c([N+](=O)[O-])nn(C)c(=O)c21	–	inconclusive: 0.103 µM [activator, full curve, poor fit]
Cc1ccc(-c2nnn3c2nc(NCCc2ccc(S(N)(=O)=O)cc2)c2ccccc23)cc1	inconclusive: 48.6%	–
O=C(Cc1ccccc1)Nc1ccc(NC(=S)NC(=O)c2ccccc2)cc1	inconclusive: -0.928%	–
Cc1cc2nc3n(c2cc1C)CC1CC(C(=O)NCCC(C)C)N(C)C31 (stereo not given)	inconclusive: 10.3%	–
CCc1ccc2c(COC(=O)C3CC(=O)N(CCc4ccccc4)C3)cc(=O)oc2c1 (stereo not given)	inconclusive	–
CCOC(=O)c1ccc(CSC(=N)N)o1	inconclusive: 31%	–
CC1CCC2C(=O)N(c3ccc(C(=O)NCc4ccccc4)cc3)C(=O)C2C1 (stereo not given)	–	inconclusive: 29.1 µM [cytotoxic, single point]
CCCn1nnnc1NCc1cccc(OC)c1	–	inconclusive: 6.51 µM [activator, single point]
COc1ccccc1C(=O)Nc1sc2c(c1C(N)=O)CCCC2	inactive	–
O=C(Nc1ccc(Cl)cc1)N1CCOC12CCC1(CC2)OCCO1	inconclusive: 30.1% [activator]	–
CC(C)C(=O)Nc1ccc(C(=O)N2CCCCCC2)cc1	–	inconclusive: 1.16 µM [falling, partial curve]
Cc1ccc(/C=C(\NC(=O)c2ccccc2)C(=O)NCC2CCCO2)o1 (stereo not given)	inconclusive: 43.7%	–
Cc1ccc(-n2c3c(cc(C(=O)Nc4cccc(C)n4)c2=O)C(=O)CCC3)cc1	–	inconclusive: 4.11 µM [activator, single point]
O=C(Nc1ccc(N2CCOCC2)cc1N1CCOCC1)c1ccc(Cl)cc1	–	inconclusive: 29.1 µM [falling, single point]
CC(=O)c1nc(N2C(=O)CC(Cc3ccccc3)C2=O)sc1C (stereo not given)	–	inconclusive: 6.51 µM [falling, single point]
COc1ccc(S(=O)(=O)NCc2ccc3c(c2)OCO3)cc1OC	inconclusive: 49.9%	–
Cc1nn(Cc2c(Cl)cccc2Cl)c(C)c1NC(=O)CCCn1nc(C)c([N+](=O)[O-])c1C	–	inconclusive: 29.1 µM [rising, single point]
Nc1[nH]nc2nc(NCc3ccccc3)c3c(c12)CCN(Cc1ccccc1)C3	inconclusive: 8.38%	–
CCCCC(=O)NC1=NC(=O)C(C)(C)S1	inconclusive: -55.3%	–

Quoted from the listing:
Entry of Cc1ccc(-c2nnn3c2nc(NCCc2ccc(S(N)(=O)=O)cc2)c2ccccc23)cc1 under lipid storage change, negative = inhibition: inconclusive: 48.6%
Entry of CCCCC(=O)NC1=NC(=O)C(C)(C)S1 under lipid storage change, negative = inhibition: inconclusive: -55.3%

Going on with the list:

Structure (SMILES)	lipid storage change, negative = inhibition	Potency
CC(C)CN(C(=O)CSc1nnc(C2CC2)n1-c1ccccc1)C1CCS(=O)(=O)C1 (stereo not given)	inconclusive: -5%	–
O=C(NC(Cc1c[nH]c2ccccc12)C(=O)OCC(=O)c1cccc2ccccc12)c1cccs1 (stereo not given)	inconclusive: 20.8%	–
CN1CCN(C(=O)/C=C\c2ccc(Cl)cc2)CC1	inconclusive: 1.85%	–
CCOc1ccc(N2C(=O)CC(N(CCc3ccccc3)C(=O)/C=C/C(=O)O)C2=O)cc1 (stereo not given)	inconclusive: -21%	–
COc1ccccc1N1CCN(CCCCOc2c(OC)cccc2OC)CC1	inconclusive: -1.99%	–
O=C1C2CC=CCC2C(=O)N1c1n[nH]c(CCc2ccccc2)n1 (stereo not given)	inconclusive: -116%	–
O=C(COC(=O)/C=C/c1ccc(OC(F)F)cc1)Nc1ccc(S(=O)(=O)N2CCCC2)cc1	inconclusive: 16.9%	–
N#CC1(NC(=O)COC(=O)c2nccnc2N)CCCCC1	–	inconclusive: 2.91 µM [activator, partial curve]
CCC(=O)NC(=S)Nc1cccc(Cl)c1N1CCCCC1	inconclusive: 4.88%	–
c1ccc2c(Cn3ccnc3)cccc2c1	–	inconclusive: 6.51 µM [activator, single point]
COc1ccccc1N1CCN(Cc2cc(=O)c(OCC(=O)NC(C)C)co2)CC1	–	inconclusive: 18.4 µM [activator, single point]
Cn1c(NC(=O)C[n+]2cc(-c3ccc(Cl)c(Cl)c3)n3c2CCC3)cc(=O)n(C)c1=O	–	inconclusive: 0.291 µM [falling, partial curve, poor fit]
CCOC(=O)c1c(SCC(=O)Nc2nc(C)cs2)nc(=O)[nH]c1C	–	active: 13 µM
CCOC(=O)C(C)Oc1ccc(C2NC(=O)NC(C)=C2C(=O)Nc2ccccc2C)cc1 (stereo not given)	inconclusive: -0.453%	–
Cc1cc(NC(=O)c2ccccc2C)no1	–	inconclusive: 0.259 µM [falling, full curve, poor fit]
CCOC(=O)C1=C(C)N(CCCC(=O)O)C(=O)NC1c1ccc(Cl)cc1 (stereo not given)	inconclusive: 11%	–
CN(C)S(=O)(=O)c1cccc(NC(=O)c2sccc2-c2ccccc2)c1	inconclusive: -62.2%	–
Cc1cc2nc(NC3=NCN(CCN4CCOCC4)CN3)nc(C)c2cc1C	inactive	–
Cc1ccc(C(=O)COC(=O)CNC(=O)Cc2ccccc2)cc1[N+](=O)[O-]	inconclusive: 9.19%	–
CC(=O)NC1C(=O)N(CC(C)C)c2ccccc21 (stereo not given)	–	inconclusive: 29.1 µM [falling, single point]
O=C(C1CCCN(Cc2ccc(F)cc2)C1)N1CCCCC1 (stereo not given)	–	inconclusive: 0.092 µM [falling, full curve, poor fit]
COc1cc(/C=C/C(=O)OCC(=O)Nc2ccc3c(c2)OCCO3)ccc1O	inconclusive: 21.3%	–
CCOC(=O)CNC(=O)N1c2ccccc2Sc2ccccc21	inconclusive: 15.3%	–
COc1ccc(-n2ccnc2CN2CCN(C3CCCC3)C(CCO)C2)cc1 (stereo not given)	inconclusive: 0.701%	–
Cc1ccc(C)c(S(=O)(=O)Nc2ccc(S(=O)(=O)Nc3onc(C)c3C)cc2)c1	–	inconclusive: 29.1 µM [falling, single point]

By substructure, those above containing an aryl thioether with sulfur outside any ring.
Structure (SMILES)	lipid storage change, negative = inhibition	Potency
Cc1cc(C(=O)CSc2nnc(-c3cccnc3)n2-c2ccccc2)c(C)n1CC1CCCO1 (stereo not given)	–	inconclusive: 0.326 µM [activator, partial curve, poor fit]
CC(C)CN(C(=O)CSc1nnc(C2CC2)n1-c1ccccc1)C1CCS(=O)(=O)C1 (stereo not given)	inconclusive: -5%	–
CCOC(=O)c1c(SCC(=O)Nc2nc(C)cs2)nc(=O)[nH]c1C	–	active: 13 µM
